Substitutions are numbered along the chain they refer to. No constants are given. Whether binding was seen depends on the method and setting. Some binding calls cover weakened binding; strength is not graded here.
How the values were obtained:
[1] = target: human CD4, cell-expressed (human) (UniProt P01730); assay: FACS, activated human T cells
[2] = target: human CD4, cell-expressed (human) (UniProt P01730); assay: FACS, MOLM-13 cells
[3] = target: human CD4, cell-expressed (human) (UniProt P01730); assay: flow cytometry on activated T cells of donor D838 (very high CD4, moderate IL12R), upper left panel
[4] = target: human CD4, cell-expressed (human) (UniProt P01730); assay: flow cytometry on MOLM-13 cells (CD4, no IL12R or IL23R), upper left panel
[5] = target: human IL12Rβ1, cell-expressed (human) (UniProt P42701); assay: FACS, activated T cells
[6] = target: human IL12Rβ1, cell-expressed (human) (UniProt P42701); assay: flow cytometry on activated human T cells, anti-FLAG detection
[7] = target: human IL-3Rα (CD123), cell-expressed (human) (UniProt P26951); assay: FACS, HEK293T-IL-3Rα cells
[8] = target: T1, recombinant IL-3Rα ectodomain (human) (UniProt P26951); assay: ELISA on recombinant IL-3Ra ectodomain (panel 'IL-3Ra ELISA', lower left)
T1 sequence (looked up): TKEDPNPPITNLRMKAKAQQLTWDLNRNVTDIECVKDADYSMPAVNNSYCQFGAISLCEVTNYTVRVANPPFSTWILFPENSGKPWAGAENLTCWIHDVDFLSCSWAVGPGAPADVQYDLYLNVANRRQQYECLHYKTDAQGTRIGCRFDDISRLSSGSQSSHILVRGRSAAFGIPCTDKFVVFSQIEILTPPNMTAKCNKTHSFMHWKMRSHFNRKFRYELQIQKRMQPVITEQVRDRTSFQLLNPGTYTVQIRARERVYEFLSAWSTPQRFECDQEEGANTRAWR

[9] = target: human IL-3Rα (CD123), cell-expressed (human) (UniProt P26951); assay: flow cytometry on THP-1 cells, anti-FLAG detection
[10] = target: human IL-3Rα (CD123), cell-expressed (human) (UniProt P26951); assay: flow cytometry at one concentration, 4.6 nM, on MOLM-13 cells (CXCR4+/CD123+), anti-FLAG detection
[11] = target: human IL-3Rα (CD123), cell-expressed (human) (UniProt P26951); assay: flow cytometry on THP-1 cells (CXCR4 and IL-3Ra)
[12] = target: human IL-3Rα (CD123), cell-expressed (human) (UniProt P26951); assay: flow cytometry on HEK293 cells transfected with human IL-3Ra, anti-FLAG detection
[13] = target: human IL-3Rα (CD123), cell-expressed (human) (UniProt P26951); assay: flow cytometry on MOLM-13 cells (IL-3Ra higher than CXCR4)
[14] = target: human CD4, cell-expressed (human) (UniProt P01730); assay: multi-colour FACS, TH1 activated T cells
[15] = target: human CD4, cell-expressed (human) (UniProt P01730); assay: multi-colour flow cytometry on TH1 activated T cells gated for CD4 or CD8, anti-flag-APC detection
[16] = target: T1, recombinant IL-3Rα ectodomain (human); assay: ELISA on recombinant IL-3Ra ectodomain (lower right panel)

Measured: binding

B1: CD4#8-35GS-IL12Rb2#2 (bispecific antibody)
chain: EVQLVESGGGSVQPGGSLTLSCGTSGRTFNVMGWFRQAPGKEREFVAAVRWSSTGIYYTQYADSVKSRFTISRDNAKNTVYLEMNSLKPEDTAVYYCAADTYNSNPARWDGYDFRGQGTLVTVSSGGGGSGGGGSGGGGSGGGGSGGGGSGGGGSGGGGSEVQLVESGGRLVQAGDSLRLSCAASGRTFTSYRMGWFRQAPGKEREFVSALRWSSGNIDYTYYADSVKGRFSISGDYAKNTVYLQMNSLKAEDTAVYYCAASTRWGVMESDTEYTSWGQGTLVTVSS
binds: [1] | [2] | [3] | [4]

B2: CD4#8-35GS-IL12Rb2#1 (bispecific antibody)
chain: B1 chain with T190I, S209A, G216S
binds: [1] | [2] | [3] | [4]

B3: IL12Rb1#31: 148F09 (VHH)
VHH: EVQLVESGGGLVQTGGSLRLSCAASGRTPSIIAMGWFRQTPGKEREFVGEIILSKGFTYYADSVKGRFTISRANAKNTITMYLQMNSLKSEDTAVYYCAARQNWSGNPTRTNEYEYWGQGTLVTVSS
binds: [5] | [6]

B4: 55A01 (VHH)
VHH: EVQLVESGGGSVQAGGSLRLSCTTSGRALNMYVMGWFRQAPGNEREFVAATSSSGGSTSYPDSVKGRFTISRDNAKNTVYLQMNSLKPEDTAAYRCAASPYVSTPTMNILEEYRYWGLGTQVTVSS
binds: [7] | [8] | [9] | [10] | [11] | [12] | [13]

B5: IL12Rb2#2-35GS-CD4#8 (bispecific antibody)
chain: EVQLVESGGRLVQAGDSLRLSCAASGRTFTSYRMGWFRQAPGKEREFVSALRWSSGNIDYTYYADSVKGRFSISGDYAKNTVYLQMNSLKAEDTAVYYCAASTRWGVMESDTEYTSWGQGTLVTVSSGGGGSGGGGSGGGGSGGGGSGGGGSGGGGSGGGGSEVQLVESGGGSVQPGGSLTLSCGTSGRTFNVMGWFRQAPGKEREFVAAVRWSSTGIYYTQYADSVKSRFTISRDNAKNTVYLEMNSLKPEDTAVYYCAADTYNSNPARWDGYDFRGQGTLVTVSS
binds: [1] | [2] | [3] | [4]

B6: IL12Rb2#1-35GS-CD4#8 (bispecific antibody)
chain: B5 chain with T30I, S49A, G56S
binds: [1] | [14] | [2] | [3] | [4] | [15]

B7: 57A07 (VHH)
VHH: EVQLVESGGGLVQAGGSLRLSCAASGSIFSGNVMGWYRRQAPGKEREWVAAIASGGSIYYRDSVKGRFTISRDNAKNTVYLQMNSLKPEDTAVYYCNSHPPTLPYWGLGTQVTVSS
binds: [7] | [9] | [10] | [16] | [12]
